Values from PubChem BioAssay AID1259405 (NCATS, 2018)

- Aim: 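Knock-downs that lift recombinant protein yield in hamster ovary cells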 (primary screen)
- System: Chinese hamster CHO-K1 ovary cells with stable secreted eGFP expression
- Reagents: single siRNA against mouse genes, 0.8 pmol siRNA per well (2 µl of 400 nM stock)
- Timing: 3 days
- Measurement: 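Percent of the per-plate non-targeting control median for intracellular GFP per well by laser scanning cytometry and for cell viability by ATP luminescence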
- Scale: GFP, % of control: higher = more GFP per well, higher productivity
- Rule for the call: 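Called active when intracellular GFP, relative to negative control, is at or above 120%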
Here is one part, drawn at random, of about 50,000 deposited reagents. Over the whole deposit, about 4,000 (8%) were called active. 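Mouse siRNA library applied to hamster cells; one well for each siRNA.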 A number with no mark means an inactive call. Reagents against one gene are numbered here. Further read-outs or replicates are left out here. Reagent sequences are not shown.

GFP, % of control, by target and reagent
Cx3cl1 (C-X3-C motif chemokine ligand 1): #1 76; #2 67.7; #3 80.3
Slc17a9: #1 41.3; #2 45.9; #3 85.4
A830018L16Rik (RIKEN cDNA A830018L16 gene): #1 18.9; #2 56.9; #3 63
Fahd2a (fumarylacetoacetate hydrolase domain containing 2A): #1 57; #2 75.3; #3 45.6
Emsy (EMSY, BRCA2-interacting transcriptional repressor): #1 97.5; #2 88.7; #3 105
L2hgdh (L-2-hydroxyglutarate dehydrogenase): #1 64.5; #2 77.5; #3 83
Plbd2 (phospholipase B domain containing 2): #1 84.9; #2 85.1; #3 103
Bmpr1b (bone morphogenetic protein receptor, type 1B): #1 63.2
Hoatz (HOATZ cilia and flagella associated protein): #1 56.3; #2 85.7; #3 82.9
Fzd2 (frizzled class receptor 2): #1 79.9; #2 84.1
Bmp8a (bone morphogenetic protein 8a): #1 81.3; #2 44.6; #3 77.9
Lca5l (Leber congenital amaurosis 5-like): #1 51.3; #2 62.8; #3 101
Enpp7 (ectonucleotide pyrophosphatase/phosphodiesterase 7): #1 92; #2 117
Ffar4 (free fatty acid receptor 4): #1 72.4; #2 99.2; #3 79.6
Sun5 (Sad1 and UNC84 domain containing 5): #1 65.4; #2 62; #3 74.9
Aldh1a2 (aldehyde dehydrogenase family 1, subfamily A2): #1 58.9; #2 73.7; #3 74.9
4921522P10Rik (RIKEN cDNA 4921522P10 gene): #1 75.7; #2 41; #3 97.1
Il12rb1 (interleukin 12 receptor, beta 1): #1 74.1; #2 63.2
Zmynd19 (zinc finger, MYND domain containing 19): #1 69.6; #2 83.6; #3 91.3
Cdpf1 (cysteine rich, DPF motif domain containing 1): #1 79.2; #2 77.9; #3 70.9
Trpc2: #1 77; #2 67.7; #3 86.3
Clca3b (chloride channel accessory 3B): #1 76.5; #2 64.1; #3 70
Gm20815 (predicted gene, 20815): #1 77.9; #2 72.9; #3 51.9

17 of these entries, reformatted:
target,reagent,"GFP, % of control"
Lca5l (Leber congenital amaurosis 5-like),3,101
Enpp7 (ectonucleotide pyrophosphatase/phosphodiesterase 7),1,92
Enpp7 (ectonucleotide pyrophosphatase/phosphodiesterase 7),2,117
Ffar4 (free fatty acid receptor 4),1,72.4
Ffar4 (free fatty acid receptor 4),2,99.2
Ffar4 (free fatty acid receptor 4),3,79.6
Sun5 (Sad1 and UNC84 domain containing 5),1,65.4
Sun5 (Sad1 and UNC84 domain containing 5),2,62
Sun5 (Sad1 and UNC84 domain containing 5),3,74.9
"Aldh1a2 (aldehyde dehydrogenase family 1, subfamily A2)",1,58.9
"Aldh1a2 (aldehyde dehydrogenase family 1, subfamily A2)",2,73.7
"Aldh1a2 (aldehyde dehydrogenase family 1, subfamily A2)",3,74.9
4921522P10Rik (RIKEN cDNA 4921522P10 gene),1,75.7
4921522P10Rik (RIKEN cDNA 4921522P10 gene),2,41
4921522P10Rik (RIKEN cDNA 4921522P10 gene),3,97.1
"Il12rb1 (interleukin 12 receptor, beta 1)",1,74.1
"Il12rb1 (interleukin 12 receptor, beta 1)",2,63.2

Next entries:
GFP, % of control, by target and reagent
Pym1 (PYM homolog 1, exon junction complex associated factor): #1 20.5; #2 71; #3 135 (active)
Cyp2d13 (cytochrome P450, family 2, subfamily d, polypeptide 13): #1 147 (active); #2 22.2; #3 135 (active)
Sestd1 (SEC14 and spectrin domains 1): #1 86.9; #2 74.6; #3 73.4
Iftap (intraflagellar transport associated protein): #1 109; #2 54.6; #3 118
Ttc34 (tetratricopeptide repeat domain 34): #1 99.8; #2 67.6; #3 91.9
Penk (preproenkephalin): #1 64.2; #2 70.2; #3 67.3
Ctbp1 (C-terminal binding protein 1): #1 23.2; #2 54.4; #3 86.5
Nlrp2 (NLR family, pyrin domain containing 2): #1 66.2; #2 54.8; #3 88.6
Bmp2k (BMP2 inducible kinase): #1 78; #2 68.7; #3 85.4
Pcdhb1 (protocadherin beta 1): #1 58.6; #2 87.4
Prpf39 (pre-mRNA processing factor 39): #1 41.6; #2 45.8; #3 85.8
Ctla4 (cytotoxic T-lymphocyte-associated protein 4): #1 49.7; #2 79.2; #3 70.4
Cyb5r1 (cytochrome b5 reductase 1): #1 50.9; #2 117; #3 72.2
Lypd9 (LY6/PLAUR domain containing 9): #1 97.7; #2 70.2; #3 70.6
Or6c2b (olfactory receptor family 6 subfamily C member 2B): #1 68.5; #2 69.1; #3 59.4
